The text below walks through data of US20070218502A1.

Protein sequences, listed by entry. Tags and fused reporters are not part of them. Lines headed by an entry give the natural chain unless they say otherwise; changes in a name come on top.
UniProt P60953: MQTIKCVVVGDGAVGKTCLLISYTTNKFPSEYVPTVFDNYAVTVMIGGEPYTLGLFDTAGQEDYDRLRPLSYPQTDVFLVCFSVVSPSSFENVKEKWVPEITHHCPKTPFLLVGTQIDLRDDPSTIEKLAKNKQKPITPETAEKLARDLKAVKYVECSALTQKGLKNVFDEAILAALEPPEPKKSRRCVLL
UniProt P42768: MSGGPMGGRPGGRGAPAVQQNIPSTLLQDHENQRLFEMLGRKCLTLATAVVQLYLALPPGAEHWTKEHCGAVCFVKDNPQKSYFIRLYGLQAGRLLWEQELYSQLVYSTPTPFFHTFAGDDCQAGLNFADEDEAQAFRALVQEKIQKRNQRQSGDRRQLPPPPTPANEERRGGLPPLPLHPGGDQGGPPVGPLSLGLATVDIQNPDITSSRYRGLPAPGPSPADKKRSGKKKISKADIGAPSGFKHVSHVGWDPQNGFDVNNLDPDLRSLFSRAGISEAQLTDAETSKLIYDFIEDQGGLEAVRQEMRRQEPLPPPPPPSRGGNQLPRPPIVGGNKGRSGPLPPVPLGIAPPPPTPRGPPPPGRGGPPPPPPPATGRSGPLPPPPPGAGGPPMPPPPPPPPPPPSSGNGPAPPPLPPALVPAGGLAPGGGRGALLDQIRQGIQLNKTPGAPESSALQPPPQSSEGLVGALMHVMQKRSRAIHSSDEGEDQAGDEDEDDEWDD

The assay deals with cdc42-GTPγS (recombinant 6His-tagged cdc42 loaded with GTPγS) (UniProt P60953). Briefly: fluorescence of dye-labeled CBD in solution.

Results are given in words; binding and its absence hold for the method and conditions named. Some binding calls cover weakened binding; strength is not graded here.

Turning to “mero-CBD D264C conjugate (Cdc42-binding fragment of human WASP, amino acids 201 to 321, D264 mutated to cysteine, labeled with merocyanine dye) (from UniProt P42768 201-321)”, the binding result was “binds”.

For “mero-CBD I233C conjugate (Cdc42-binding fragment of human WASP, amino acids 201 to 321, I233 mutated to cysteine, labeled with merocyanine dye) (from UniProt P42768 201-321)”, the binding entry is “binds”.
